# Data: PubChem BioAssay AID485314 (National Center for Advancing Translational Sciences (NCATS), 2010)
# The whole screen tested about 340,000 compounds, of which about 4,500 (1.3%) were called active. This list was built around the results that the source calls inconclusive (neither active nor inactive); the mix of calls is not that of the screen. Calls follow the shape of the dose curve; as a rule, active = well fitted inhibition curve with a large enough effect; inconclusive = small, poorly fitted or top-dose-only effect, or another doubt; inactive = no such curve, though single readings can be large or run the other way. Where the call is inconclusive, the potency comes from a doubtful curve fit.
# Molecular target: DNA polymerase beta (Homo sapiens) (UniProt P06746)
# Test: qHTS Assay for Inhibitors of DNA Polymerase Beta
# Conditions: Pol beta primer extension/strand displacement, fluorescence kinetic; activity change, negative = inhibition: at 114 µM (top of the series)
# In short: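 Values derive from four-parameter Hill fits of normalized kinetic data: reads at 0 and 10 min following addition of 50 nM substrate to 10 nM Pol beta preincubated 15 min with compound.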
# % is scaled to controls: 0 for no effect and ±100 for the full control effect; potency is read from the fitted curve at half-maximal effect.
SMILES,Potency,"activity change, negative = inhibition"
O=C1NC(=O)N(Cc2ccco2)C(=O)/C1=C\c1cccn1CCOc1ccc(Cl)cc1,active: 28.2 µM,–
CCCCCn1c(SCCCC)nc2c1c(=O)[nH]c(=O)n2C,"inconclusive: 89.1 µM [inhibitor, single point]",–
Cc1o[nH]c(=O)c1CC(N)C(=O)O (stereo not drawn),inactive,–
Cc1cccc(OCCn2cccc2/C=C2/C(=O)NC(=O)N(Cc3ccco3)C2=O)c1,active: 31.6 µM,–
CC(=O)Nc1ccc(N=Cc2c(O)n(Cc3ccco3)c(=O)[nH]c2=O)cc1,active: 25.1 µM,–
CCCCC(=O)N/N=C/c1c(O)n(Cc2ccco2)c(=O)[nH]c1=O,"inconclusive: 79.4 µM [inhibitor, single point]",–
CCOC(=O)CC(NC(=O)C(Cc1ccc(N(CCCl)CCCl)cc1)NC(C)=O)C(=O)OCC (stereo not drawn),"inconclusive: 10 µM [inhibitor, partial curve]",–
Cn1cccc1/C=C1/C(=O)NC(=S)N(Cc2ccc(F)cc2)C1=O,–,inconclusive: -104% [inhibitor]
O=C(CCS(=O)NCc1ccccc1)NCc1ccccc1 (stereo not drawn),"inconclusive: 3.55 µM [inhibitor, single point]",–
O=c1c2ccccc2[nH]c(=S)n1-c1ccc2c(c1)OCCO2,inactive,–
CN1C(=O)C(=Cc2ccc(SC3CCCCC3)o2)C(=O)N(C)C1=O,active: 22.4 µM,–
COC(=O)c1ccc(-n2c(C)nc3ccccc3c2=O)cc1,"inconclusive: 5.62 µM [inhibitor, full curve]",–
Cc1ccc(F)cc1NC(=O)c1ccc(Cn2nc(N3CCN(c4ccccc4)CC3)ccc2=O)o1,"inconclusive: 15.8 µM [inhibitor, single point]",–
Cc1ccc(-c2nc(S(=O)(=O)c3ccc(C)cc3)c(SCC(=O)Nc3ccc(F)cc3)o2)cc1,"inconclusive: 20 µM [inhibitor, full curve]",–
CCN(CC)C(=O)Cn1cc(/C=C2\C(=O)NC(=O)N(c3ccccc3F)C2=O)c2ccccc21,inactive,–
CCN(CC)S(=O)(=O)c1cccc(N=Nc2c(O)n(CC)c(=S)n(CC)c2=O)c1,"inconclusive: 39.8 µM [inhibitor, partial curve, poor fit]",–
COc1ccc(N(CC(=O)Nc2cccc(SC)c2)S(C)(=O)=O)cc1Cl,"inconclusive: 56.2 µM [inhibitor, partial curve, poor fit]",–
O=C1NC(=O)N(Cc2ccc(F)cc2)C(=O)/C1=C\c1ccc(N2CCCC2)cc1,active: 35.5 µM,–
O=c1c2ccccc2nc(/C=C/c2ccc(O)cc2)n1-c1cccc(O)c1,active: 3.98 µM,–
COC1C(OC(=O)c2ccc(C)[nH]2)C(O)C(Oc2ccc3c(O)c(NC(=O)c4ccc(O)c(CC=C(C)C)c4)c(=O)oc3c2Cl)OC1(C)C (stereo not drawn),active: 44.7 µM,–
O=C(N/N=C/c1c(O)n(Cc2ccc(F)cc2)c(=O)[nH]c1=O)c1ccccc1,inactive,–
O=C1NC(=O)N(CC2CCCO2)C(=O)/C1=C/c1cccs1 (stereo not drawn),"inconclusive: 20 µM [inhibitor, partial curve]",–

SMILES,Potency,"activity change, negative = inhibition"
Cc1cccc(-n2c(O)c(C=Nc3ccc(Br)cn3)c(=O)[nH]c2=O)c1,"inconclusive: 63.1 µM [inhibitor, single point]",–
Cc1ccc(/C=C2\C(=O)NC(=S)N(c3cccc(F)c3)C2=O)o1,inactive,–
O=C(O)c1ccccc1-c1ccc(C=C2C(=O)N(c3ccccc3)C(=S)N(c3ccccc3)C2=O)o1,active: 44.7 µM,–
CN1C(=O)C(=Cc2ccccc2OCCOc2ccc([N+](=O)[O-])cc2)C(=O)N(C)C1=O,inactive,–
CCOC(=O)C1CCCN(c2ccc([N+](=O)[O-])c3nonc23)C1 (stereo not drawn),active: 14.1 µM,–
COCCNC(=O)Cn1cc(C(=O)c2ccccc2F)c2ccccc21,"inconclusive: 25.1 µM [inhibitor, partial curve, poor fit]",–
CCN1C(=O)NC(=O)/C(=C\c2ccc(N3CCOCC3)cc2OC)C1=O,inactive,–
CN(C)c1ccc(NC(=O)CSc2nc(-c3ccco3)cc(C(F)(F)F)n2)cc1,"inconclusive: 28.2 µM [inhibitor, single point]",–
CN1C(=O)C(=Cc2coc3ccccc3c2=O)C(=O)N(C)C1=O,inactive,–
Cc1cccc(NC(=O)Cn2cc(C(=O)c3ccccc3)c3ccccc32)c1,inactive,–
O=c1c2ccccc2nc(/C=C/c2ccc(O)cc2)n1-c1ccc(O)cc1,"inconclusive: 63.1 µM [inhibitor, single point]",–
O=C1NC(=O)N(Cc2ccccc2)C(=O)/C1=C\c1ccco1,active: 25.1 µM,–
O=C(N/N=C/c1c(O)n(CCc2ccc(F)cc2)c(=O)[nH]c1=O)c1ccncc1,"inconclusive: 89.1 µM [inhibitor, single point]",–
CCN(c1ccc(C(O)(C(=O)OC)C(F)(F)F)cc1)S(=O)(=O)c1ccccc1 (stereo not drawn),"inconclusive: 89.1 µM [inhibitor, single point]",–
O=C1NC(=S)N(c2ccc(F)cc2)C(=O)/C1=C\c1ccoc1,active: 2.24 µM,–
CCn1c(O)c(C=Nc2ccc(N3CCOCC3)c(Br)c2)c(=O)n(CC)c1=S,inactive,–
c1ccc2c(c1)CSc1ccccc1C2C1=NCCN1 (stereo not drawn),"inconclusive: 89.1 µM [inhibitor, single point]",–
CCOC(=O)c1sc(=NC(=O)c2ccc(C)c(C)c2)n(C)c1C,"inconclusive: 89.1 µM [inhibitor, single point]",–
O=c1[nH]c(=S)[nH]c(O)c1N=Nc1ccc(S(=O)(=O)N2CCc3ccccc32)cc1,active: 79.4 µM,–
O=C(CN1C(=O)COc2ccc(Cl)cc21)Nc1ccc2c(c1)OCCO2,"inconclusive: 63.1 µM [inhibitor, partial curve, poor fit]",–
CCOC(=O)C1(c2ccccc2)CCN(CC(=O)Nc2cccc3ccccc23)CC1,"inconclusive: 89.1 µM [inhibitor, single point]",–
Nc1ccccc1N=Cc1c(O)n(CCC2=CCCCC2)c(=O)[nH]c1=O,"inconclusive: 12.6 µM [inhibitor, full curve, poor fit]",–

SMILES,Potency,"activity change, negative = inhibition"
O=C1NC(=O)N(c2ccccc2)C(=O)/C1=C/c1coc2ccc(O)cc2c1=O,inactive,–
O=[N+]([O-])c1ccc(-c2ccccc2)c([As](=O)(O)O)c1,"inconclusive: 0.794 µM [inhibitor, full curve, poor fit]",–
N=C1/C(=C\c2ccc(OC(=O)c3ccccc3Cl)cc2)C(=O)N=C2SC(N3CCOCC3)=NN12,active: 39.8 µM,–
CC(C)NC(C)Cc1ccc(I)cc1 (stereo not drawn),inactive,–
CN[C@H]1C[C@H]2O[C@@](C)([C@H]1OC)n1c3ccccc3c3c4c(c5c6ccccc6n2c5c31)C(=O)NC4,"inconclusive: 7.94 µM [inhibitor, full curve]",–
Cc1cccc(N2C(=O)NC(=O)/C(=C\C=C\c3ccco3)C2=O)c1,"inconclusive: 31.6 µM [inhibitor, partial curve]",–
CCOc1cc(CNCCc2c[nH]c3ccccc23)cc(Cl)c1OC,"inconclusive: 1.78 µM [inhibitor, full curve]",–
Cc1cccc(-n2c(/C=C/c3ccccn3)nc3ccccc3c2=O)c1,"inconclusive: 12.6 µM [inhibitor, partial curve]",–
COC(=O)C1=Nc2ccccc2/C1=C\c1c(O)n(-c2ccc(Br)cc2)c(=O)[nH]c1=O,"inconclusive: 28.2 µM [inhibitor, full curve]",–
O=c1[nH]c(=S)n(C2CCCCC2)c(O)c1/C=N/N1CCOCC1,"inconclusive: 0.251 µM [inhibitor, full curve, poor fit]",–
O=C(c1ccc2c(c1)N(Cc1ccc(F)cc1)CCS2)N1CCC2(CC1)OCCO2,–,inconclusive: -50.4% [inhibitor]
Cc1ccc(N2C(=O)NC(=O)/C(=C\c3ccc([N+](=O)[O-])o3)C2=O)cc1,"inconclusive: 6.31 µM [inhibitor, partial curve]",–
CC(C)(C)C(O)C(Oc1ccc(Cl)cc1)n1cncn1 (stereo not drawn),"inconclusive: 0.141 µM [inhibitor, full curve, poor fit]",–
c1ccc2c(c1)Nc1ccccc1S2,"inconclusive: 89.1 µM [inhibitor, single point]",–
O=C1Nc2ccccc2/C1=C/c1nc2ccccc2c(=O)n1-c1ccc(O)cc1,–,inconclusive: -113% [inhibitor]
O=C(O)c1ccccc1N=Nc1c(O)[nH]c(=O)[nH]c1=O,"inconclusive: 25.1 µM [inhibitor, partial curve, poor fit]",–
CC(C)n1c(=O)c(C=Nc2ccc(Br)cc2)c(O)n(Cc2ccco2)c1=O,"inconclusive: 35.5 µM [inhibitor, full curve]",–
CCOC(=O)N1CCN(C(=O)C(CC(C)C)NS(=O)(=O)c2ccc3c(c2)oc(=O)n3C)CC1 (stereo not drawn),"inconclusive: 89.1 µM [inhibitor, single point]",–
O=C(Cn1c(=O)oc2cc(S(=O)(=O)N3CCCC3)ccc21)N1CCN(c2ccccc2F)CC1,"inconclusive: 50.1 µM [inhibitor, partial curve]",–
CCOc1ccc(-c2cc(C)n3nc(C(=O)Nc4ccc(C)c(C)c4)cc3n2)cc1,active: 8.91 µM,–
CNc1ccc2nc3ccccc3[n+](C)c2c1,active: 28.2 µM,–
C=CCN1C(=O)/C(=C/c2ccc3c(c2)CCCN3CCC)C(=O)NC1=S,"inconclusive: 35.5 µM [inhibitor, full curve, poor fit]",–

# Nothing new here: an excerpt of the list.
SMILES,Potency,"activity change, negative = inhibition"
CC(C)NC(C)Cc1ccc(I)cc1 (stereo not drawn),inactive,–
CN[C@H]1C[C@H]2O[C@@](C)([C@H]1OC)n1c3ccccc3c3c4c(c5c6ccccc6n2c5c31)C(=O)NC4,"inconclusive: 7.94 µM [inhibitor, full curve]",–
Cc1cccc(N2C(=O)NC(=O)/C(=C\C=C\c3ccco3)C2=O)c1,"inconclusive: 31.6 µM [inhibitor, partial curve]",–
